Test results reported in the supplement of paper PMC12764529.
± gives the half width of the 95% confidence interval. The two proteases of the assay disagree for many of these sequences.

Columns and labels:
[1] = folding stability dG unfold (combined trypsin and chymotrypsin); higher = more stable
Outline: (§1)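 Unfolding free energy was derived, per protease or combined, by relating Bayesian-fitted K50 values from sequencing counts to a sequence-predicted unfolded-state K50 and a shared folded-state K50. The underlying digests exposed cysteine-free mini-proteins under 80 residues, in a PA-tagged cDNA display construct, to trypsin and chymotrypsin at 11 threefold-diluted concentrations and to a no-protease condition. A filter kept only designs with AlphaFold2 dimer inter-PAE above 15.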

[2] = folding stability dG unfold from trypsin proteolysis; higher = more stable
Procedure: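 Folding stability of de novo designed mini-proteins (<80 aa, no Cys; designed by TrROS, TrMRF, ProteinMPNN and the joint model) was measured by cDNA display proteolysis with trypsin and chymotrypsin. Each protease was used at 11 concentrations in a threefold dilution series plus a no-protease condition. K50 was inferred by Bayesian fitting of sequencing counts, and dG unfold was derived against a sequence-predicted unfolded-state K50 (Tsuboyama et al. method). Sequences shown include variable-length N-terminal GS-type padding (SAGGSAGG...) inside a display construct carrying a PA tag. Rows were kept only if the AF2 dimer inter-PAE was >15, to exclude likely homo-oligomers.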

[3] = folding stability dG unfold from chymotrypsin proteolysis; higher = more stable
Outline: as §1

Sequence	folding stability dG unfold [1] [kcal/mol]	folding stability dG unfold [2] [kcal/mol]	folding stability dG unfold [3] [kcal/mol]
SAGGSAGGSEIKEGEKVTLEITLLVYDKETKRYYLVRMEIVVDAKTNEIVEMKMEVYELPEEPSAGGSAGGS [r12_868_TrROS_Hall]	5.83 ± 0.97	3.16 ± 0.3	5.74 ± 0.13
SMKVVKLYTDPEGRVVIEITLPKPDGTPVSEEEAKAIADEIAAELKPKYPNATFEITYDPKTGVVTITIGSA [r9_485_JUSTAS]	2.97 ± 0.1	3.49 ± 0.13	2.51 ± 0.053
SAGGSAGGSAGMEPIRVTVTTQDTATGTTTTTTVTVPTDVPVEAVLAALDPALVTAVTVESAGGSAGGSAGG [r11_386_JUSTAS]	0.808 ± 0.11	1.68 ± 0.061	-0.172 ± 0.072
SAGGSEKLSPEEQAKRQKPPAPPVIVIEGPLSEEQIKALVDAGYTIYITGPDGSVWKIKDGKIEKISAGGSA [r2_33_TrROS_Hall]	3.38 ± 0.21	0.299 ± 0.071	3.83 ± 0.13
SAGGSAKEVKIKVEVKYNKETKKYVIKVTVTDKNGKKKTVEIVIENMTKEEIEKKAKELAKELIKKSAGGSA [r15_526_TrROS_Hall]	3.6 ± 0.4	1.36 ± 0.11	4.28 ± 0.22
SAGGMTLEELKKAKIFAVLKNEKGEEYIVEAEIKEVEEKGEKLVLKVPYKIYNPNGELIAEGEFELELSAGG [r13_172_TrMRF]	4.29 ± 0.22	2.17 ± 0.096	4.69 ± 0.079
SAGGSAGGSAGPKIKIKKFPDFLIAEIEFPDGKKATAIFDPKTGKIIVFVGDKPIEIDIGSAGGSAGGSAGG [r11_846_TrMRF]	3.1 ± 0.07	2.16 ± 0.059	3.49 ± 0.09
SAGGSAGGSAGGSMKITKVIEDPALLAAGGYTTTELEDGSVVYTLPNGEVLTEKLPPGLSAGGSAGGSAGGS [r4_373_JUSTAS]	0.91 ± 0.13	-0.957 ± 0.36	1.5 ± 0.083
SAGGSAGGSAGGEFEVRVVPVLDPNGRPLLLRYIPPLGTVQVFDPRTGKLVATLPAELLSAGGSAGGSAGGS [r10_589_TrMRF]	1.42 ± 0.065	-0.559 ± 0.36	1.79 ± 0.14
SAEMSPEERELLERLEELAKEAGVTVTIEVDEKTRRITITVEAPSEEKRRKLAEKLRELGLEVEVRPEPSAG [r14_284_TrROS_Hall]	4.66 ± 0.15	4.78 ± 0.12	2.62 ± 0.037
SAELTPEQQALIDALRALFDARGWEVEVKFYPNPDKMEVTVRTPDPALEAEIRAALAALPLPVARVTEESAG [r14_284_JUSTAS]	2.97 ± 0.059	0.941 ± 0.036	3.423 ± 0.026
SAGGSAGGSAGGAIPSDTEVELELTLVDPRTGKPRRLRVRARVEVRPDGSLVVELEVEPESAGGSAGGSAGG [r7_18_TrMRF]	3.04 ± 0.096	0.641 ± 0.13	3.53 ± 0.058
SAELEELLKKAEELAKKNNVEVEVEVKLELEPVKVTEYKLNKDGKPVEKKEEEELELRLEIKVKIRPKKSAG [r14_728_TrROS_Hall]	2.58 ± 0.35	1.26 ± 0.2	3.22 ± 0.2
SAGGSAGGSAGLLPIEELLKKNPEPVTFMVKDNDTLYRIEITPKDGKWTIEIEPLPGMKPSAGGSAGGSAGG [r11_549_TrROS]	1.2 ± 0.043	0.756 ± 0.021	1.49 ± 0.077
SAGGSAGGSAGKVVLYLPGDGTAWVLKVGDGEAVLEAEPEKVEELLEKIPGTEAVPVPGLSAGGSAGGSAGG [r11_57_TrMRF]	0.425 ± 0.12	0.652 ± 0.026	-0.0929 ± 0.23
SAGGSAGGSVPLELELTFKLENGSFIVVKAKIEFNPETPEFKVEVLSVEIFLEPEGKIVSDEDFSAGGSAGG [r6_864_TrMRF]	2.44 ± 0.29	1.43 ± 0.087	3.08 ± 0.085

Sequence	folding stability dG unfold [1] [kcal/mol]	folding stability dG unfold [2] [kcal/mol]	folding stability dG unfold [3] [kcal/mol]
SAGGVDKGPPDAEVSREVLPRKLPNGKELLEEIRTRVLASGSLLVDRTIRDPNSDKVESEELVDPGASAGGS [r8_129_JUSTAS]	-0.0613 ± 0.32	0.021 ± 0.31	-0.0363 ± 0.16
SAGGSAGGSAGPFKIEMTFIFKKDNEYYIAKIEIEISPDGYPKMKIEIKKVDINELENYFSAGGSAGGSAGG [r11_690_TrMRF]	4.04 ± 0.4	2.52 ± 0.15	4.39 ± 0.14
SAGGSAGGSKDEYITYKKITIKLKAKITKYIPGKGGYEIEIEDVEIKIEIITLKKKDAKKLAKSAGGSAGGS [r12_723_TrMRF]	3.07 ± 0.48	1.43 ± 0.1	3.74 ± 0.11
ETITIELPEELRGLSAEEIKALLREKLNLPGVEVTVEYDPETRTVTVTVRVAPPPPKVEVTEEELKKLEEES [r1_131_TrROS_Hall]	3.97 ± 0.28	2.44 ± 0.095	4.78 ± 0.62
SAGGSAGGSAGKPKYKIKKIEIKKNKDGTYTITAEIELENGKTLKLTITVKPGEKIEIKPSAGGSAGGSAGG [r17_316_TrROS_Hall]	4.68 ± 0.17	2.4 ± 0.058	4.86 ± 0.084
SAGGSAGGKPKTVTLEIEVNGKTYTIEFNEDTKEITITDKETGKKYTIPVDPDQSLEDILKALESAGGSAGG [r6_165_TrROS_Hall]	4.14 ± 0.2	2.3 ± 0.1	4.37 ± 0.1
SAGGSAGGSAGSTVVTEVEVSEELPEGEVIPTTITTETLPTGKVVRVTTPDGTVVSTSSVSAGGSAGGSAGG [r17_274_JUSTAS]	1.02 ± 0.11	-0.702 ± 0.17	1.41 ± 0.1
SAGGSAGGSAGAETETRTETRVERPAPTVTVTLTFTLPDGLTVRLTFDAATQELTLEVYPSAGGSAGGSAGG [r17_369_TrROS_Hall]	3.88 ± 0.13	2.11 ± 0.093	4.35 ± 0.07
SAGGSAGGSKIKEIEVDPEGGWVQIEIPPNEPPKPLPGIKDVEPNDDRQTITFPVKPGDEIKISAGGSAGGS [r20_37_TrROS]	1 ± 0.17	-0.943 ± 0.28	1.47 ± 0.057
SAGGSAGGSMKLKPGEKVKVKVVDPETGEVFEAEVVDGKIYITLPNGEKKEVSAEEIVHVEKVSAGGSAGGS [r20_35_TrROS_Hall]	1.66 ± 0.14	-0.399 ± 0.11	2.23 ± 0.026
SAGGSAGGSAGGKVSIEEIKPLKVLPNGKVLVVMKLKFTEENGPEIGEIDLLFVFDDKGSAGGSAGGSAGGS [r10_941_TrMRF]	1.58 ± 0.51	0.068 ± 0.19	2.23 ± 0.15
SMEDMIERAIDEILEARENGGPTVTIEMRFPGYMFRIEIDPEGWKIEEIEWEPFPDDMPYIRYTIKLPPDSA [r9_308_TrROS]	4.63 ± 0.44	2.49 ± 0.15	4.95 ± 0.35
GPLEERVEALRARVEALLRELGLPEDVVVTVEVEFERTPSGEPGLRVRVTVTSPGPPGALPAAFEAALAALS [r1_98_JUSTAS]	3.19 ± 0.095	1.29 ± 0.045	3.46 ± 0.048
SAGGSAGGSAGDKTTIRIKVARNWDPNSDLVTVKLPNGKTVTVKVTNLKPDDEVEVEADLSAGGSAGGSAGG [r11_621_JUSTAS]	1.03 ± 0.095	-0.953 ± 0.62	1.52 ± 0.046
SAGGSAGGELPEGAEVELVEVDGKLYLVVRFPDGTIQVFELKDGKLEPVKTIKVKPGDVILIELSAGGSAGG [r6_475_TrROS_Hall]	3.4 ± 0.084	1.7 ± 0.052	3.77 ± 0.043

Some of the entries above in a different format.
Sequence,folding stability dG unfold [1] [kcal/mol],folding stability dG unfold [2] [kcal/mol],folding stability dG unfold [3] [kcal/mol]
SAGGSAGGSEIKEGEKVTLEITLLVYDKETKRYYLVRMEIVVDAKTNEIVEMKMEVYELPEEPSAGGSAGGS [r12_868_TrROS_Hall],5.83 ± 0.97,3.16 ± 0.3,5.74 ± 0.13
SMKVVKLYTDPEGRVVIEITLPKPDGTPVSEEEAKAIADEIAAELKPKYPNATFEITYDPKTGVVTITIGSA [r9_485_JUSTAS],2.97 ± 0.1,3.49 ± 0.13,2.51 ± 0.053
SAGGMTLEELKKAKIFAVLKNEKGEEYIVEAEIKEVEEKGEKLVLKVPYKIYNPNGELIAEGEFELELSAGG [r13_172_TrMRF],4.29 ± 0.22,2.17 ± 0.096,4.69 ± 0.079
SAGGSAGGSAGPKIKIKKFPDFLIAEIEFPDGKKATAIFDPKTGKIIVFVGDKPIEIDIGSAGGSAGGSAGG [r11_846_TrMRF],3.1 ± 0.07,2.16 ± 0.059,3.49 ± 0.09
SAELTPEQQALIDALRALFDARGWEVEVKFYPNPDKMEVTVRTPDPALEAEIRAALAALPLPVARVTEESAG [r14_284_JUSTAS],2.97 ± 0.059,0.941 ± 0.036,3.423 ± 0.026
SAGGSAGGSAGGAIPSDTEVELELTLVDPRTGKPRRLRVRARVEVRPDGSLVVELEVEPESAGGSAGGSAGG [r7_18_TrMRF],3.04 ± 0.096,0.641 ± 0.13,3.53 ± 0.058
SAGGSAGGKPKTVTLEIEVNGKTYTIEFNEDTKEITITDKETGKKYTIPVDPDQSLEDILKALESAGGSAGG [r6_165_TrROS_Hall],4.14 ± 0.2,2.3 ± 0.1,4.37 ± 0.1
SAGGSAGGSKIKEIEVDPEGGWVQIEIPPNEPPKPLPGIKDVEPNDDRQTITFPVKPGDEIKISAGGSAGGS [r20_37_TrROS],1 ± 0.17,-0.943 ± 0.28,1.47 ± 0.057
SAGGSAGGELPEGAEVELVEVDGKLYLVVRFPDGTIQVFELKDGKLEPVKTIKVKPGDVILIELSAGGSAGG [r6_475_TrROS_Hall],3.4 ± 0.084,1.7 ± 0.052,3.77 ± 0.043
